Experimental data taken from patent US20240277868A1.
Results are given in words; binding and its absence hold for the method and conditions named. For part of these data: In cells and extracts the contact can be indirect. Some results given as binding are weak or reduced against the parent protein; the word gives no strength.

Chains of the proteins cited; added tags and fusions are not shown. Lines headed by an entry give the natural chain unless they say otherwise; changes in a name come on top. Residues count along the entry.
UniProt P02545, residues 1-646: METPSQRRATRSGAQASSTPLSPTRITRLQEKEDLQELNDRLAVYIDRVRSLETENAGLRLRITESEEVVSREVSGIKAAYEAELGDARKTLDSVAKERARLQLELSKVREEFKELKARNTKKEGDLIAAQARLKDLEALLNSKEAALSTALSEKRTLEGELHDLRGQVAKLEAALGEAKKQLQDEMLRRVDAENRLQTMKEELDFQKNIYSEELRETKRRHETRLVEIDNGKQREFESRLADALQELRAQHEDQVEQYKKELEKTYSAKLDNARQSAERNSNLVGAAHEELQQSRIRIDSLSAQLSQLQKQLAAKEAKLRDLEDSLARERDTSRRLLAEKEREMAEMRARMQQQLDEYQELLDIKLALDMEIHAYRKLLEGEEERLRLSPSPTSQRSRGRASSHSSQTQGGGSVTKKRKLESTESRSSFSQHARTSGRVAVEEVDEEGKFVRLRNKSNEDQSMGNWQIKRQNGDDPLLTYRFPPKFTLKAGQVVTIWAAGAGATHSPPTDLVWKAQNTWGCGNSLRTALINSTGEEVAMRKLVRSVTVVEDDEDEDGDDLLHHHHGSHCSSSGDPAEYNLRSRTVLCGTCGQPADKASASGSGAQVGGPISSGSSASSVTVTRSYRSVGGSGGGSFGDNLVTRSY
UniProt Q8N6T7: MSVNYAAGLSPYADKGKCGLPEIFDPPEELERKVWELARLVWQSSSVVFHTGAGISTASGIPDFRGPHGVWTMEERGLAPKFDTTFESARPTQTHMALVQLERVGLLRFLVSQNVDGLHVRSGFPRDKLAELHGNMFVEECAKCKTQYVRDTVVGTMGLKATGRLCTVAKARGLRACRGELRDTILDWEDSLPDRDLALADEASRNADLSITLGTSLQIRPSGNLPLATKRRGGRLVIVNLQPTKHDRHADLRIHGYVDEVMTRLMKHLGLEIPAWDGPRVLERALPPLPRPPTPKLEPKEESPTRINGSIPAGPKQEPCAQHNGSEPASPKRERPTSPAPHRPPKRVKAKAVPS

Assays:
Prelamin-A/C (human) [1] = target: Prelamin-A/C (human) (UniProt P02545); test: SIRT6 IP followed by Western blot with antibodies to LMNA
Prelamin-A/C (human) [2] = target: Prelamin-A/C (human) (UniProt P02545); test: co-IP with SIRT6 antibodies and LMNA Western blot, and reciprocal co-IP, cumate SIRT6 fibroblasts
Prelamin-A/C (human) [3] = target: Prelamin-A/C (human) (UniProt P02545); test: LMNA IP followed by Western blot with antibodies to SIRT6

binding (Prelamin-A/C (human) [1])	binding (Prelamin-A/C (human) [2])	binding (Prelamin-A/C (human) [3])	Substance
binds	binds	binds	SIRT6 N308K A313S variant (centSIRT6) (from UniProt Q8N6T7 2-355) (enzyme)
binds	binds	binds	wild type SIRT6 (from UniProt Q8N6T7 2-355) (enzyme)
